{"source": "patent US7977379B2", "about": "“Method for angiogenesis inhibition or immunostimulation” (priority 2002, dated 2011)", "system": "angiogenesis induced by means of MATRIGEL matrix (heparin, a-FGF)", "assay": "Test Example 4: angiogenesis induced by MATRIGEL matrix (same method as test example 1)", "assay_type": "in vivo, C57BL/6 female mice", "conditions": "MATRIGEL weight and hemoglobin vs control group", "protocol": "More specifically, normal mice (5 mice/1 group) were used after breeding C57BL/6 female mice (5 week old, purchased from Charles River JAPAN, Inc.) preliminarily for one week. While cooling test materials as shown in the following, each of the test materials 0.5 ml were transplanted to subcutaneous of abdomen of the mice. MATRIGEL was taken out on the sixth day after transplantation, and state of angiogenesis was observed. In addition, the MATRIGEL was freeze-dried, and it was weighed. […] Group 0 of nothing addition: MATRIGEL Control group: […] Group 1 of test material addition: […] Group 3 of test material addition: […] Group 4 of test material addition: […] Group 5 of test material addition: […] Group 6 of test material addition: […] Group 7 of test material addition: […] Group 9 of test material addition: […]", "data": [{"smiles": "NCCCC(=O)O", "note": "[gamma aminobutyric acid, reference compound]", "values": [{"measurement": "angiogenesis inhibition effect (in words)", "result": "not recognized"}]}]}
